Publication PMC7354551

The chains behind the UniProt entries cited, without tags or fusion partners.
UniProt Q9UER7: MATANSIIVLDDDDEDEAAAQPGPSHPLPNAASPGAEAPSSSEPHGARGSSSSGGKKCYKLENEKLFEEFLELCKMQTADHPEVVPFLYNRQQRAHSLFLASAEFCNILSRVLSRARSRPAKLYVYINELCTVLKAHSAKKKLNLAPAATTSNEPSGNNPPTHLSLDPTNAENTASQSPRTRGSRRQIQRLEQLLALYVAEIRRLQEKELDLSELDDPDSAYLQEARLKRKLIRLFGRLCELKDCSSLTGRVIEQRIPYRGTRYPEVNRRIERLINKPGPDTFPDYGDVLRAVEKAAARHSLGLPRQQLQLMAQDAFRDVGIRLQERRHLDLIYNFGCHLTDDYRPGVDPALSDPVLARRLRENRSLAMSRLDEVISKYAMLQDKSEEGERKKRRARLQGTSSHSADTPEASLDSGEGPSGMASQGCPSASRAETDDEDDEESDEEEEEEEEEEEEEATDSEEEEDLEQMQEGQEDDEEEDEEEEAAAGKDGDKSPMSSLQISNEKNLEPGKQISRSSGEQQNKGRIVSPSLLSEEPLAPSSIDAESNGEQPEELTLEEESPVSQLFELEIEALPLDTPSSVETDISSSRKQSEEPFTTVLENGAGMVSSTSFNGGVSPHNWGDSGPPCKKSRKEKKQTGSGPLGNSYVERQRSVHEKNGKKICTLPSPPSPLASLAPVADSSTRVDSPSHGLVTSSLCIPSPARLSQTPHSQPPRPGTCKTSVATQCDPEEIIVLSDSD
UniProt O75925: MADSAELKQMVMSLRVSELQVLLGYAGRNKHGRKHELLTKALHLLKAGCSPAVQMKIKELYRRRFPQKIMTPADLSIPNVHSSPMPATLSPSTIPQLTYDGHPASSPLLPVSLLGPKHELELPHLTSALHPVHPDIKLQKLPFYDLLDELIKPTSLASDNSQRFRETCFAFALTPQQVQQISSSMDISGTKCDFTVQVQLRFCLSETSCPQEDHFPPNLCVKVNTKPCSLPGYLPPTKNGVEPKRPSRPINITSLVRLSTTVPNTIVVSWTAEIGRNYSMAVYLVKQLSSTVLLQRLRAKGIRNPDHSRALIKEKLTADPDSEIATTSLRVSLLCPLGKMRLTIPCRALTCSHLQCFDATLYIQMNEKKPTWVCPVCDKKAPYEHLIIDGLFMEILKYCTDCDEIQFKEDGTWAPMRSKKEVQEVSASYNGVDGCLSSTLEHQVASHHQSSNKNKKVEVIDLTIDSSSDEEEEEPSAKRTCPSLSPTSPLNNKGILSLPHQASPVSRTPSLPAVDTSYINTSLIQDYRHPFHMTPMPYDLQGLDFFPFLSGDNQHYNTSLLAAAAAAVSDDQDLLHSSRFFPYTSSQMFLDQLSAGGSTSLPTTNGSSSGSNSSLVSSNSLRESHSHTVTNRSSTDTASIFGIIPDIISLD
UniProt P49792: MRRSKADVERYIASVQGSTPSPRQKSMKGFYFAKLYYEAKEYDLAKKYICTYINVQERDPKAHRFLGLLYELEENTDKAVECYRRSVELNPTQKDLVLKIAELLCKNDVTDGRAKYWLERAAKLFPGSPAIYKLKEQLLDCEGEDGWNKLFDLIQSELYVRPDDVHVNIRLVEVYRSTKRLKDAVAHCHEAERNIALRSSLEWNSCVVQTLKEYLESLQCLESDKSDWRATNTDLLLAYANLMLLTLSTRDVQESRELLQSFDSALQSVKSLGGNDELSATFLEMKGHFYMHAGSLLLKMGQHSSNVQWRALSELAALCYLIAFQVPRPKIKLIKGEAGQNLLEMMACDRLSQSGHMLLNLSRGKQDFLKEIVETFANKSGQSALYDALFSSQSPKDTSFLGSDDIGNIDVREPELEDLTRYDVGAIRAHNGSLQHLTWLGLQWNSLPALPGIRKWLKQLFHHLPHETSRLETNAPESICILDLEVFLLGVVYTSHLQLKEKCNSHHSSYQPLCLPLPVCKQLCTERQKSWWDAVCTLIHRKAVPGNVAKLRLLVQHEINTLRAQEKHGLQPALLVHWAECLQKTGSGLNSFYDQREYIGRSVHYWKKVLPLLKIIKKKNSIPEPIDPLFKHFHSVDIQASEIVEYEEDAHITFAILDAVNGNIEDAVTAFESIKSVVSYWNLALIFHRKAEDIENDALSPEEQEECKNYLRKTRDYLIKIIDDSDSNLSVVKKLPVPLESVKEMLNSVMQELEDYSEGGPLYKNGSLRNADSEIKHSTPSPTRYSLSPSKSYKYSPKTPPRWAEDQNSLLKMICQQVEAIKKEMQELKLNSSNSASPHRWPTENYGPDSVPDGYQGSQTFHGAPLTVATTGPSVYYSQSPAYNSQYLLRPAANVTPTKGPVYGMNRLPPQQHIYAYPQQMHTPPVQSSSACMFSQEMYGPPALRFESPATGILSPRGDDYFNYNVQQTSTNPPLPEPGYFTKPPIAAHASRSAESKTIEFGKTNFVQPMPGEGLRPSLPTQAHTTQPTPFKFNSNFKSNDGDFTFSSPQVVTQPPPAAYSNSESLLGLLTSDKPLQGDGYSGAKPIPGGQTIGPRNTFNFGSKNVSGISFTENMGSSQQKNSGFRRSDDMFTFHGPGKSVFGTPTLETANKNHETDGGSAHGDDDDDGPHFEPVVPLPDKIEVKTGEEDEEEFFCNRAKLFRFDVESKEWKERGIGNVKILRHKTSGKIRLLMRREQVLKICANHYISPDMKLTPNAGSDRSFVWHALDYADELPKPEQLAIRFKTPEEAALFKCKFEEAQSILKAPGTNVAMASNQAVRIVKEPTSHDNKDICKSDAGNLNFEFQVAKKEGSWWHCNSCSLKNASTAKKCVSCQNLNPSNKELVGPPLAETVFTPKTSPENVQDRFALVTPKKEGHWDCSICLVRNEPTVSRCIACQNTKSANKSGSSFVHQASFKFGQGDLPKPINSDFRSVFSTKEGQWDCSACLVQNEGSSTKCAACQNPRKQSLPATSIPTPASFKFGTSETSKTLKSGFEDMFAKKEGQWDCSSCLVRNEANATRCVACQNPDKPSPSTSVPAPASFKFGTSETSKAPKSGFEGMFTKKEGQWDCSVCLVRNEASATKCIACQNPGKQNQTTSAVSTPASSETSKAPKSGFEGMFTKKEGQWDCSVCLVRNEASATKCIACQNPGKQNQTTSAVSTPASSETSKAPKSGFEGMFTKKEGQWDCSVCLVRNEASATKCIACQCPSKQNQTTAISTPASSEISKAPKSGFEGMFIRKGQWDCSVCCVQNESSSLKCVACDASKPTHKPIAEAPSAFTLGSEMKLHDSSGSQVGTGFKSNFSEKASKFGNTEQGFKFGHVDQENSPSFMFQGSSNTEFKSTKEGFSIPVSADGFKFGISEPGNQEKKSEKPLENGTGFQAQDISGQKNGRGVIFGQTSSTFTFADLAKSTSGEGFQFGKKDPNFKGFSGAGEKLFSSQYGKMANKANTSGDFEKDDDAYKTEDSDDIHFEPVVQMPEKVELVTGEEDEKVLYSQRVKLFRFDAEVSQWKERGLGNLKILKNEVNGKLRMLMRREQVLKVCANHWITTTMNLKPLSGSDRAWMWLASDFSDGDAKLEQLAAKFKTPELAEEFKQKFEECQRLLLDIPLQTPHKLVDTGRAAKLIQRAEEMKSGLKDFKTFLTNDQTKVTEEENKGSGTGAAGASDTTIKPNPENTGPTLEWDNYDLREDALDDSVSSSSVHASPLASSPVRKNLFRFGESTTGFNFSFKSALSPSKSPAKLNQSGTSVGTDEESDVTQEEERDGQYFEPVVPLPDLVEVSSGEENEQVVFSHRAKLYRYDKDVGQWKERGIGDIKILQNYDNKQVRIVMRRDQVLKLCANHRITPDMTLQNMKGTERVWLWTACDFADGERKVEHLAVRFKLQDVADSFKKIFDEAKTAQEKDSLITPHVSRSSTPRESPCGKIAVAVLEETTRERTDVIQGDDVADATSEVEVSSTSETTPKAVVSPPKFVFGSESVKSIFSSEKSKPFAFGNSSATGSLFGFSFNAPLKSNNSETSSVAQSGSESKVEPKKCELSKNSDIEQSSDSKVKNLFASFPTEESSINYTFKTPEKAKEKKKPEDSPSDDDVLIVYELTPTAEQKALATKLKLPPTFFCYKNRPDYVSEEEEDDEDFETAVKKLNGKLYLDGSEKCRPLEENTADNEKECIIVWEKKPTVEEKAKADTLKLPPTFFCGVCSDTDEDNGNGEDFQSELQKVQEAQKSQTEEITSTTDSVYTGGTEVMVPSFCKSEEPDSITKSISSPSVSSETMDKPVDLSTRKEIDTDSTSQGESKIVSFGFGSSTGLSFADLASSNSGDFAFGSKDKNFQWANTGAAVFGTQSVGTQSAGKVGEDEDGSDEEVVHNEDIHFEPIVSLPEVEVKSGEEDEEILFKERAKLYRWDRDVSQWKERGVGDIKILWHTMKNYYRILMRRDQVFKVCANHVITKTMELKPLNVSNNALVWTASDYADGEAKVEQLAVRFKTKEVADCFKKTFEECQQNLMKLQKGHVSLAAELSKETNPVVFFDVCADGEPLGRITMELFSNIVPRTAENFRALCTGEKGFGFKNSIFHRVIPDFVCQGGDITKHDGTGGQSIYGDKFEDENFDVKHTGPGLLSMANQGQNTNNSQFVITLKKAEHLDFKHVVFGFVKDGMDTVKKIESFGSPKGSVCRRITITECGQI
UniProt P29590: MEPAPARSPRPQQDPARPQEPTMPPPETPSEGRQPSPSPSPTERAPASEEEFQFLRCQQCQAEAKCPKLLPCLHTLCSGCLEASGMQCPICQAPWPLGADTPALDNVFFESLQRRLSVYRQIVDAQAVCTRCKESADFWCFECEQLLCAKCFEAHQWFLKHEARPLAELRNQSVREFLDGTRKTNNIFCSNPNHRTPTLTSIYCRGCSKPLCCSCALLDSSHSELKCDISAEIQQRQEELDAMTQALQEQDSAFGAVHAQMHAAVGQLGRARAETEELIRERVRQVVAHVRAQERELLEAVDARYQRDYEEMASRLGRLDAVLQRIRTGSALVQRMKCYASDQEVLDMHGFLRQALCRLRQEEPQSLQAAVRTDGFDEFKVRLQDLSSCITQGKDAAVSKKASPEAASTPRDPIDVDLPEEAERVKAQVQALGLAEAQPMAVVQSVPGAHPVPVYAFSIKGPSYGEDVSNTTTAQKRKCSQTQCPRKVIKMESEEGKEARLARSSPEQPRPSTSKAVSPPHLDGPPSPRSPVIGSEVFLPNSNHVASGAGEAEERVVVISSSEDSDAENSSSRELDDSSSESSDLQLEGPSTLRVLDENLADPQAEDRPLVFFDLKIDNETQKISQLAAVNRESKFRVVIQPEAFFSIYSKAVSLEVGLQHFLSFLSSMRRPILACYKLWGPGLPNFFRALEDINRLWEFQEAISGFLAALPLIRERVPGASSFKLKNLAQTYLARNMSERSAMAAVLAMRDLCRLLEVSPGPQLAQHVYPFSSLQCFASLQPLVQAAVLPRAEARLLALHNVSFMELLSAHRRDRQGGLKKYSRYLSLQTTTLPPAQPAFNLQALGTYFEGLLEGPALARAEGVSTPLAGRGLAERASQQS
UniProt Q93009: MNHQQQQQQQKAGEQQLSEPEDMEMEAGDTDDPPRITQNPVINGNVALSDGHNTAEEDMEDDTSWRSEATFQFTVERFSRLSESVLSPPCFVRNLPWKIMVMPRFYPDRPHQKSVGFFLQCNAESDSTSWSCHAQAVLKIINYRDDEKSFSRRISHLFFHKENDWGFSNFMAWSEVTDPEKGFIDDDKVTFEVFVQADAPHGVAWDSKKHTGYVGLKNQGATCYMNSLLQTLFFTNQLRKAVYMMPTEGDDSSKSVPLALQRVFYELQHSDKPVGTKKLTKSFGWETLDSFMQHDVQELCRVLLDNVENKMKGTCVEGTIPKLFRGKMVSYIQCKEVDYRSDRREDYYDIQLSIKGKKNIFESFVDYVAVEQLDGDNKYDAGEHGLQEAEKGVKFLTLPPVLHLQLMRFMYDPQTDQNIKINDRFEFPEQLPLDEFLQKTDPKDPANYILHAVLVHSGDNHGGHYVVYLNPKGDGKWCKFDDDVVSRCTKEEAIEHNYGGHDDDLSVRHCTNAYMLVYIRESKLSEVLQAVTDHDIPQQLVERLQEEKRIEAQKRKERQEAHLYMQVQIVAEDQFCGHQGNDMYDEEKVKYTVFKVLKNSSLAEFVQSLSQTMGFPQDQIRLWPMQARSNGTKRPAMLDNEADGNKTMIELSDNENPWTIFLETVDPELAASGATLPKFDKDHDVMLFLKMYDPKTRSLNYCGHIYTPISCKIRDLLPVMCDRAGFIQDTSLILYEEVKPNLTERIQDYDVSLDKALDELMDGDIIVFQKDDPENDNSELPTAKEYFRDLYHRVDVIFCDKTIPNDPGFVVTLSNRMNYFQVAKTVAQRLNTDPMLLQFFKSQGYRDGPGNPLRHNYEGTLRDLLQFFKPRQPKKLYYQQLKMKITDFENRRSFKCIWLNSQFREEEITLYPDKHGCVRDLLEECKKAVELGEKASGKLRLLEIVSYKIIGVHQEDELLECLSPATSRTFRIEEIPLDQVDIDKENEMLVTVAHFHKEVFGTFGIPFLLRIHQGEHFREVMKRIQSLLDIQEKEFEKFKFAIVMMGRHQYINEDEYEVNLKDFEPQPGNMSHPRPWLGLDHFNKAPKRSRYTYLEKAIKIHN

B1: Protein DEK (protein, UniProt P35659 1-375)
chain: MSASAPAAEGEGTPTQPASEKEPEMPGPREESEEEEDEDDEEEEEEEKEKSLIVEGKREKKKVERLTMQVSSLQREPFTIAQGKGQKLCEIERIHFFLSKKKTDELRNLHKLLYNRPGTVSSLKKNVGQFSGFPFEKGSVQYKKKEEMLKKFRNAMLKSICEVLDLERSGVNSELVKRILNFLMHPKPSGKPLPKSKKTCSKGSKKERNSSGMARKAKRTKCPEILSDESSSDEDEKKNKEESSDDEDKESEEEPPKKTAKREKPKQKATSKSKKSVKSANVKKADSSTTKKNQNSSKKESESEDSSDDEPLIKKLKKPPTDEELKETIKKLLASANLEEVTMKQICKKVYENYPTYDLTERKDFIKTTVKELIS
B2: Transportin-3 (protein, UniProt Q9Y5L0 1-923)
chain: MEGAKPTLQLVYQAVQALYHDPDPSGKERASFWLGELQRSVHAWEISDQLLQIRQDVESCYFAAQTMKMKIQTSFYELPTDSHASLRDSLLTHIQNLKDLSPVIVTQLALAIADLALQMPSWKGCVQTLVEKYSNDVTSLPFLLEILTVLPEEVHSRSLRIGANRRTEIIEDLAFYSSTVVSLLMTCVEKAGTDEKMLMKVFRCLGSWFNLGVLDSNFMANNKLLALLFEVLQQDKTSSNLHEAASDCVCSALYAIENVETNLPLAMQLFQGVLTLETAYHMAVAREDLDKVLNYCRIFTELCETFLEKIVCTPGQGLGDLRTLELLLICAGHPQYEVVEISFNFWYRLGEHLYKTNDEVIHGIFKAYIQRLLHALARHCQLEPDHEGVPEETDDFGEFRMRVSDLVKDLIFLIGSMECFAQLYSTLKEGNPPWEVTEAVLFIMAAIAKSVDPENNPTLVEVLEGVVRLPETVHTAVRYTSIELVGEMSEVVDRNPQFLDPVLGYLMKGLCEKPLASAAAKAIHNICSVCRDHMAQHFNGLLEIARSLDSFLLSPEAAVGLLKGTALVLARLPLDKITECLSELCSVQVMALKKLLSQEPSNGISSDPTVFLDRLAVIFRHTNPIVENGQTHPCQKVIQEIWPVLSETLNKHRADNRIVERCCRCLRFAVRCVGKGSAALLQPLVTQMVNVYHVHQHSCFLYLGSILVDEYGMEEGCRQGLLDMLQALCIPTFQLLEQQNGLQNHPDTVDDLFRLATRFIQRSPVTLLRSQVVIPILQWAIASTTLDHRDANCSVMRFLRDLIHTGVANDHEEDFELRKELIGQVMNQLGQQLVSQLLHTCCFCLPPYTLPDVAEVLWEIMQVDRPTFCRWLENSLKGLPKETTVGAVTVTHKQLTDFHKQVTSAEECKQVCWALRDFTRLFR
B3: SUMO-activating enzyme subunit 1 (protein, UniProt Q9UBE0 1-346)
chain: MVEKEEAGGGISEEEAAQYDRQIRLWGLEAQKRLRASRVLLVGLKGLGAEIAKNLILAGVKGLTMLDHEQVTPEDPGAQFLIRTGSVGRNRAEASLERAQNLNPMVDVKVDTEDIEKKPESFFTQFDAVCLTCCSRDVIVKVDQICHKNSIKFFTGDVFGYHGYTFANLGEHEFVEEKTKVAKVSQGVEDGPDTKRAKLDSSETTMVKKKVVFCPVKEALEVDWSSEKAKAALKRTTSDYFLLQVLLKFRTDKGRDPSSDTYEEDSELLLQIRNDVLDSLGISPDLLPEDFVRYCFSEMAPVCAVVGGILAQEIVKALSQRDPPHNNFFFFDGMKGNGIVECLGPK
B4: SUMO-activating enzyme subunit 2 (protein, UniProt Q9UBT2 1-640)
chain: MALSRGLPRELAEAVAGGRVLVVGAGGIGCELLKNLVLTGFSHIDLIDLDTIDVSNLNRQFLFQKKHVGRSKAQVAKESVLQFYPKANIVAYHDSIMNPDYNVEFFRQFILVMNALDNRAARNHVNRMCLAADVPLIESGTAGYLGQVTTIKKGVTECYECHPKPTQRTFPGCTIRNTPSEPIHCIVWAKYLFNQLFGEEDADQEVSPDRADPEAAWEPTEAEARARASNEDGDIKRISTKEWAKSTGYDPVKLFTKLFKDDIRYLLTMDKLWRKRKPPVPLDWAEVQSQGEETNASDQQNEPQLGLKDQQVLDVKSYARLFSKSIETLRVHLAEKGDGAELIWDKDDPSAMDFVTSAANLRMHIFSMNMKSRFDIKSMAGNIIPAIATTNAVIAGLIVLEGLKILSGKIDQCRTIFLNKQPNPRKKLLVPCALDPPNPNCYVCASKPEVTVRLNVHKVTVLTLQDKIVKEKFAMVAPDVQIEDGKGTILISSEEGETEANNHKKLSEFGIRNGSRLQADDFLQDYTLLINILHSEDLGKDVEFEVVGDAPEKVGPKQAEDAAKSITNGSDDGAQPSTSTAQEQDDVLIVDSDEEDSSNNADVSEEERSRKRKLDEKENLSAKRSRIEQKEELDDVIALD

molecular target: HA-tagged Daxx wild-type (death domain-associated protein 6) (human) (UniProt Q9UER7); experiment: affinity purification with mass spectrom

“CREB-binding protein (from UniProt Q92793 1-2442)” was tested. Which binding did it give?
The binding was “binds”.

Which binding does the source give for “E3 SUMO-protein ligase PIAS1 (from UniProt O75925 1-651)” here?
The binding was “binds”.

With “E3 SUMO-protein ligase RanBP2 (from UniProt P49792 1-3224)” as the molecule, how does the binding read?
The binding was “binds”.

“Histone deacetylase 1 (from UniProt Q13547 1-482)” was tested. Which binding did it give?
Its binding is “binds”.

Protein PML (from UniProt P29590 1-882) was tested. Which binding did it give?
Its binding is “binds”.

“Ubiquitin carboxyl-terminal hydrolase 7 (from UniProt Q93009 1-1102)” was tested. Which binding did it give?
The binding was “binds”.

molecular target: HA-tagged Daxx wild-type (death domain-associated protein 6) (human) (UniProt Q9UER7); experiment: affinity purification with mass spectrom; remark: another data set of the same source

How did the binding turn out when B1 was run?
Its binding is “binds”.

How did the binding turn out when B2 was run?
The binding was “binds”.

With B3 as the molecule, how does the binding read?
The binding was “binds”.

B4 was tested. Which binding did it give?
Its binding is “binds”.

These are yes or no findings as the source states them, for the method shown. In cells and extracts the contact can be indirect. These calls come from enrichment with a bait or labelling near it, and not all partners need be listed.
